Measurements published in PMC12346307.
No constants are given. Whether binding was seen depends on the method and setting. Binding seen in cells or lysates may run through a third protein. Some entries that bind do so weakly or less than the wild type. Sequences can lack the tags named with a protein.

By UniProt entry, the sequences of proteins in these tests, tags left out.
UniProt Q9V9J3: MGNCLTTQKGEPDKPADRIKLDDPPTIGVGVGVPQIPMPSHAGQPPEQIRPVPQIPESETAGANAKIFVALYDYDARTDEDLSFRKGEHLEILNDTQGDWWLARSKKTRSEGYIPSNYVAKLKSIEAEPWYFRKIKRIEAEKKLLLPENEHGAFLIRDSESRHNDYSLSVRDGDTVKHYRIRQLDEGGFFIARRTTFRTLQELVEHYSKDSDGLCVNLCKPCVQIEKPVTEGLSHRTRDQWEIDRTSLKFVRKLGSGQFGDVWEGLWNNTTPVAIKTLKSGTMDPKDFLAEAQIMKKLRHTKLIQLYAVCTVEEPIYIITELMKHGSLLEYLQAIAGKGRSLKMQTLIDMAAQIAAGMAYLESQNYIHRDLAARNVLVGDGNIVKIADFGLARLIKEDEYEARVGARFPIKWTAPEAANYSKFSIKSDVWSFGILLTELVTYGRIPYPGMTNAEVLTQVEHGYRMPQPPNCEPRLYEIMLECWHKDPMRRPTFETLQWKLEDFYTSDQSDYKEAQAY

T1: Myc-tagged Ephrin (Ephrin-Myc), full length (Drosophila) (UniProt Q9V4E1)
T1 sequence: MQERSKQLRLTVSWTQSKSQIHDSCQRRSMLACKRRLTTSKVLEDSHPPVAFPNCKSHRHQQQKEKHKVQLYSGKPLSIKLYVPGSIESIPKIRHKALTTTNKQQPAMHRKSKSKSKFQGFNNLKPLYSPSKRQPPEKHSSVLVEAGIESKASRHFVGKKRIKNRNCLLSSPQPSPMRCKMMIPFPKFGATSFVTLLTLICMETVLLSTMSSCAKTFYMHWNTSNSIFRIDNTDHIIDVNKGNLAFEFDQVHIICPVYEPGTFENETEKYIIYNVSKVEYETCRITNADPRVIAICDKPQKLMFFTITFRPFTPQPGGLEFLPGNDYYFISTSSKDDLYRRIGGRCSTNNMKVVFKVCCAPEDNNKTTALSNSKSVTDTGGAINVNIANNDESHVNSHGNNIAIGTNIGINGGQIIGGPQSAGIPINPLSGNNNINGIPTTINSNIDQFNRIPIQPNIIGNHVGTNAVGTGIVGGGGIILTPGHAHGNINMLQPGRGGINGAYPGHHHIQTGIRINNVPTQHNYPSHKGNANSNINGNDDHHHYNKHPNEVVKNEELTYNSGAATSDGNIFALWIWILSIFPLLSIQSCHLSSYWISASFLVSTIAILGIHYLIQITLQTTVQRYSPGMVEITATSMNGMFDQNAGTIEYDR


Target: T1, Myc-tagged Ephrin (Ephrin-Myc), full length (Drosophila)
Assay: co-IP; anti-Myc-tag antibody magnetic beads on lysates of dissected fly brains expressing Ephrin-Myc or EphrinCD-Myc; lysis buffer with protease inhibitor cocktail, with or without phosphatase inhibitor, 1 mM PMSF, 10 mM NaF; endogenous partners detected by Western blotting

binding | Molecule
binds | Src42A, endogenous (from UniProt Q9V9J3 1-517) (enzyme)
binds | Fasciclin 2 (Fas2), endogenous (protein, UniProt P34082 29-873) QSPILEIYPKQEVQRKPVGKPLILTCRPTVPEPSLVADLQWKDNRNNTILPKPNGRNQPPMYTETLPGESLALMITSLSVEMGGKYYCTASYANTEILEKGVTIKTYVAITWTNAPENQYPTLGQDYVVMCEVKADPNPTIDWLRNGDPIRTTNDKYVVQTNGLLIRNVQESDEGIYTCRAAVIETGELLERTIRVEVFIQPEIISLPTNLEAVEGKPFAANCTARGKPVPEISWIRDATQLNVATADRFQVNPQTGLVTISSVSQDDYGTYTCLAKNRAGVVDQKTKLNVLVRPQIYELYNVTGARTKEIAITCRAKGRPAPAITFRRWGTQEEYTNGQQDDDPRIILEPNFDEERGESTGTLRISNAERSDDGLYQCIARNKGADAYKTGHITVEFAPDFSHMKELPPVFSWEQRKANLSCLAMGIPNATIEWHWNGRKIKDLYDTNLKIVGTGPRSDLIVHPVTRQYYSGYKCIATNIHGTAEHDMQLKEARVPDFVSEAKPSQLTATTMTFDIRGPSTELGLPILAYSVQYKEALNPDWSTAYNRSWSPDSPYIVEGLRPQTEYSFRFAARNQVGLGNWGVNQQQSTPRRSAPEEPKPLHNPVQHDKEEPVVVSPYSDHFELRWGVPADNGEPIDRYQIKYCPGVKISGTWTELENSCNTVEVMETTSFEMTQLVGNTYYRIELKAHNAIGYSSPASIIMKTTRGIDVIQVAERQVFSSAAIVGIAIGGVLLLLFVVDLLCCITVHMGVMATMCRKAKRSPSEIDDEAKLGSGQLVKEPPPSPLPLPPPVKLGGSPMSTPLDEKEPLRTPTGSIKQNSTIEFDGRFVHSRSGEIIGKNSAV
